Results are given in words; binding and its absence hold for the method and conditions named. Some results given as binding are weak or reduced against the parent protein; the word gives no strength.
Target: Gal4 DNA-BD-Grb14 fusion (full length Grb14, GRB14/pAS2.1) (S. cerevisiae) (UniProt P04386+Q14449)
Experiment: yeast two hybrid screen with Grb14 bait

The chains behind the UniProt entries cited, without tags or fusion partners. Where a name states a change or a piece, a line headed by the entry shows the natural chain unless it says otherwise. A line that says so, or that is headed by a name, gives the form on record, which may keep a tag or linker.
UniProt P04386: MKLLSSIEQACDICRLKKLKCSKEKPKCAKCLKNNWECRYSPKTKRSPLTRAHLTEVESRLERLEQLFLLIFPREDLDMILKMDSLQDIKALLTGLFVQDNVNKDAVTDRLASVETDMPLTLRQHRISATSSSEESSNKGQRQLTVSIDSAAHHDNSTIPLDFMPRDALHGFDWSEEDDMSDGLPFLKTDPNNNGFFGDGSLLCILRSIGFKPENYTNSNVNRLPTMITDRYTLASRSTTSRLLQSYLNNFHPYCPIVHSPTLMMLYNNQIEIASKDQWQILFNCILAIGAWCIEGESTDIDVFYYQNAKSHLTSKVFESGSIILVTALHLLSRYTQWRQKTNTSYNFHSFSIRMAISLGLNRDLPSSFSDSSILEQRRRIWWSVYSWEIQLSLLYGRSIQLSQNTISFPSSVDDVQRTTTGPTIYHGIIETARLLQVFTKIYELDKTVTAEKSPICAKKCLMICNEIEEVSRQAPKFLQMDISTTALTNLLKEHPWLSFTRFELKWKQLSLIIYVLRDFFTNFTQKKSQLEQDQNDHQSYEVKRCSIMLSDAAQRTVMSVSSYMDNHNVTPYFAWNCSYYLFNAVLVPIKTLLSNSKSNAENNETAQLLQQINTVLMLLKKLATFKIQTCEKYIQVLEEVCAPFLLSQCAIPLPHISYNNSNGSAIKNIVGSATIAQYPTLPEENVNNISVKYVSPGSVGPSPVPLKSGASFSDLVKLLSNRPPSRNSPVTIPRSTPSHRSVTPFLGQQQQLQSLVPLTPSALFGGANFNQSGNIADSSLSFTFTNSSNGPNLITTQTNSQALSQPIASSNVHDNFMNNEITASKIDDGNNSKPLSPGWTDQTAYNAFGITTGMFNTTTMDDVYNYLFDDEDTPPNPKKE
UniProt Q14449: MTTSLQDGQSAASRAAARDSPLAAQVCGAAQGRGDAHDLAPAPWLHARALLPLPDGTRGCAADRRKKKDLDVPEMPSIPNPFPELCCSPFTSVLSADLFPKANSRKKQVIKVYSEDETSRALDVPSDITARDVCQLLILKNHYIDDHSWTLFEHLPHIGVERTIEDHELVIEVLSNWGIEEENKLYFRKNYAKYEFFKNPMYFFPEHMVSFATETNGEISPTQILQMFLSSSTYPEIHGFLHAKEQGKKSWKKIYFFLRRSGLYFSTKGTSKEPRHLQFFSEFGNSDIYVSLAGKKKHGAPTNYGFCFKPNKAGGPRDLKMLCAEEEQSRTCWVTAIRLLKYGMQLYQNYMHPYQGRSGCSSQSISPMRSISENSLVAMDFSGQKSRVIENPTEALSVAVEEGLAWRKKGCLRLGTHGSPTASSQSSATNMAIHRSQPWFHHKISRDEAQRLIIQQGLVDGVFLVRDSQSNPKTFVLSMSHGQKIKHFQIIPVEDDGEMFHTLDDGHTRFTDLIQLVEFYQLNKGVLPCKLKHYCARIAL
Nedd4 partial cDNA clone in pACT2 (CaLB domain together with the first 22 amino acids of the first WW domain) (P46934, form named): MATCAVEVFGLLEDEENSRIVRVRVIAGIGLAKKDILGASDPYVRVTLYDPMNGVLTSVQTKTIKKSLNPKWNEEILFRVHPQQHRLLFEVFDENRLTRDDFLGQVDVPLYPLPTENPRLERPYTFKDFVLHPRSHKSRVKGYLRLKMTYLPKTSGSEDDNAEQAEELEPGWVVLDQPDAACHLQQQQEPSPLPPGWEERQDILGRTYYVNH

binding: binds
Substance: Nedd4 partial cDNA clone in pACT2 (CaLB domain together with the first 22 amino acids of the first WW domain) (from UniProt P46934 1-212)
